Laboratory results taken from PubChem BioAssay AID248 (DTP/NCI, 2004).
The list does not hold the whole screen: it is rich in T/C values a quarter to a half above the control, in often repeated tests (any T/C) and in doses without a T/C. Other doses and runs of a compound stand elsewhere. T/C is the treated group as % of the vehicle group. Some entries give survivors of the animals treated and no T/C: the source holds a T/C of zero for them, seemingly a mark for toxic or unscored doses. Some doses without a T/C left all or most animals alive at the check, yet need not have been tolerated: the source hardly ever lists a survival T/C far under the control, and the zero likely stands for such cases as well. Counts of survivors are from the toxicity check (mostly the fifth day) where no day follows; animals may have died later. Schedule codes are those of the source, taken here to give the interval after Q, in days (D) or hours (H), and the number of doses after X. Signs of the kind (2×) give the number of equal values in this list. Some entries hold several experiments; their values stand side by side, smallest first. Some molecules as drawn cover several salts, stereoisomers or complexes of the source; a dose is that of the sample tested. Some schedule codes hold Z or #, which are not explained here. For survival time, the PubChem record calls one and a half times the control and up active, and a quarter to a half above the control has no call in these data; cut-offs in other NCI protocols can differ. Some T/C values are followed by the survivors on the day toxicity was checked, most often the fifth; where none is given, no animal had died by that day.

System: L1210 leukemia ip in BDF1 mice, survival T/C
Test: NCI In Vivo Anticancer Drug Screen. Data for tumor model L1210 Leukemia (intraperitoneal) in B6D2F1 (BDF1) mice
Settings: T/C endpoint: mean survival time, higher T/C = longer survival
[1] = dose: 200.0 mg/kg/injection, schedule: Q04DX002 (ip), vehicle: saline with Tween-80
[2] = dose: 400.0 mg/kg/injection, schedule: Q04DX002 (ip), vehicle: Klucel (hydroxypropylcellulose) (HPC)
[3] = dose: 200.0 mg/kg/injection, schedule: Q01DX005 (ip), vehicle: saline
[4] = dose: 300.0 mg/kg/injection, schedule: Q01DX001 (ip), vehicle: saline
[5] = dose: 25.0 mg/kg/injection, schedule: Q04DX003 (ip), vehicle: Klucel (hydroxypropylcellulose) (HPC)
[6] = dose: 400.0 mg/kg/injection, schedule: Q01DX001 (ip), vehicle: saline
[7] = dose: 100.0 mg/kg/injection, schedule: Q01DX009 (ip), vehicle: saline
[8] = dose: 200.0 mg/kg/injection, schedule: Q01DX009 (ip), vehicle: saline
[9] = dose: 400.0 mg/kg/injection, schedule: Q01DX009 (ip), vehicle: saline
[10] = dose: 400.0 mg/kg/injection, schedule: Q04DX003 (ip), vehicle: saline
[11] = dose: 400.0 mg/kg/injection, schedule: Q04DX003 (ip), vehicle: Klucel (hydroxypropylcellulose) (HPC)
[12] = dose: 100.0 mg/kg/injection, schedule: Q04DX003 (ip), vehicle: Klucel (hydroxypropylcellulose) (HPC)
[13] = dose: 200.0 mg/kg/injection, schedule: Q04DX003 (ip), vehicle: Klucel (hydroxypropylcellulose) (HPC)
[14] = dose: 400.0 mg/kg/injection, schedule: Q04DX003 (ip), vehicle: saline with Tween-80
[15] = dose: 200.0 mg/kg/injection, schedule: Q01DX009 (ip), vehicle: Klucel (hydroxypropylcellulose) (HPC)
[16] = dose: 25.0 mg/kg/injection, schedule: Q01DX009 (ip), vehicle: Klucel (hydroxypropylcellulose) (HPC)

## CP1(=S)CCC(O)(c2ccccc2)CC1 (centres undefined)
dose: 100.0 mg/kg/injection, schedule: Q04DX002 (ip), vehicle: saline with Tween-80
  survivor count: 3 of 3
[1]
  survivor count: 3 of 3

## CC(=O)SCCNCCNC1CC2CCC1C2 (centres undefined)
dose: 20.0 mg/kg/injection, schedule: Q04DX003 (ip), vehicle: saline
  survivor count: 6 of 6
dose: 35.0 mg/kg/injection, schedule: Q01DX009 (ip), vehicle: saline
  survivor count: 1 of 6
dose: 40.0 mg/kg/injection, schedule: Q04DX003 (ip), vehicle: saline
  survivor count: 1 of 6
dose: 50.0 mg/kg/injection, schedule: Q01DX009 (ip), vehicle: saline
  survivor count: 0 of 6

## COc1ccc(NC(=O)Oc2ccccc2C(N)=O)c(Cl)c1
[2]
  survivor count: 3 of 3

## NCc1cn(C2OC(CO)C(O)C2O)c2ncnc(N)c12 (centres undefined)
dose: 6.25 mg/kg/injection, schedule: Q01DX009 (ip), vehicle: saline
  survivor count: 6 of 6
dose: 12.5 mg/kg/injection, schedule: Q01DX005 (ip), vehicle: saline
  survivor count: 2 of 6
dose: 100.0 mg/kg/injection, schedule: Q01DX005 (ip), vehicle: saline
  survivor count: 0 of 6
[3]
  survivor count: 0 of 6

## CN1CCCCC1c1ccccc1 (centres undefined)
dose: 150.0 mg/kg/injection, schedule: Q01DX001 (ip), vehicle: saline
  survivor count: 0 of 6
[4]
  survivor count: 0 of 6

## CCOC(=O)NCC(CCN1CCCC1)(c1cccc2ccccc12)C(C)C (centres undefined)
[5]
  survivor count: 6 of 6

## CCN(CC)CC(O)COc1ccccc1C (centres undefined)
dose: 200.0 mg/kg/injection, schedule: Q01DX001 (ip), vehicle: saline
  survivor count: 0 of 4
[6]
  survivor count: 0 of 4

## OC1OC(COC(c2ccccc2)(c2ccccc2)c2ccccc2)C(O)C(O)C1O (centres undefined)
[7]
  survivor count: 6 of 6
[8]
  survivor count: 6 of 6
dose: 400.0 mg/kg/injection, schedule: Q01DX009 (ip), vehicle: saline with Tween-80
  survivor count: 0 of 6
[9]
  survivor count: 0 of 6
[10]
  survivor count: 3 of 6

## Nc1cccc(C(=O)O)c1C(=O)O
dose: 300.0 mg/kg/injection, schedule: Q01DX001 (ip), vehicle: carboxymethylcellulose (CMC)
  survivor count: 1 of 6
[11]
  survivor count: 3 of 6

## CC1(C)CC(=NNC(N)=S)CC(C)(C)N1O
dose: 100.0 mg/kg/injection, schedule: Q04DX002 (ip), vehicle: saline
  T/C: 129 % of control
[1]
  survivor count: 0 of 4

## CCC[CH2][Hg][O]C(C)=O
[5]
  survivor count: 1 of 6
[12]
  survivor count: 0 of 6
[13]
  survivor count: 0 of 6
[11]
  survivor count: 0 of 6

## O=c1c(N=Nc2ccc(Br)cc2)c(O)n(-c2ccccc2Cl)c(=S)n1-c1ccccc1
dose: 37.5 mg/kg/injection, schedule: Q01DX001 (ip), vehicle: Klucel (hydroxypropylcellulose) (HPC)
  T/C: 125 % of control

## Clc1nc(Cl)c2c(ncn2Cc2ccccc2)n1
dose: 400.0 mg/kg/injection, schedule: Q01DX001 (ip), vehicle: other
  survivor count: 1 of 6

## CN(C)CCCC1c2ccccc2Oc2ccc(C(F)(F)F)cc21 (centres undefined)
dose: 50.0 mg/kg/injection, schedule: Q04DX003 (ip), vehicle: saline
  survivor count: 1 of 4
[7]
  survivor count: 2 of 6
dose: 100.0 mg/kg/injection, schedule: Q04DX003 (ip), vehicle: saline
  survivor count: 0 of 4
[8]
  survivor count: 0 of 6
dose: 200.0 mg/kg/injection, schedule: Q04DX003 (ip), vehicle: saline
  survivor count: 0 of 4
[9]
  survivor count: 0 of 6
[10]
  survivor count: 0 of 4

## OC1CSC1
[6]
  survivor count: 2 of 4

## COc1ccc(CCNC(=O)Cc2ccc(OC)c(OC)c2)cc1OC
dose: 100.0 mg/kg/injection, schedule: Q04DX003 (ip), vehicle: saline with Tween-80
  survivor count: 6 of 6
[14]
  survivor count: 6 of 6

## O=C(Nc1cccc(C(F)(F)F)c1)Nc1ncccn1
[15]
  survivor count: 6 of 6 (2×)

## CCN1CCc2cc3c(cc2C1)OCO3
dose: 100.0 mg/kg/injection, schedule: Q01DX001 (ip), vehicle: carboxymethylcellulose (CMC)
  survivor count: 2 of 6
dose: 200.0 mg/kg/injection, schedule: Q01DX001 (ip), vehicle: carboxymethylcellulose (CMC)
  survivor count: 0 of 6
dose: 400.0 mg/kg/injection, schedule: Q01DX001 (ip), vehicle: carboxymethylcellulose (CMC)
  survivor count: 0 of 6

## C#CCCCN1CCC2(CC1)C(=O)N(C(=O)N(C)C)CN2c1ccccc1
dose: 200.0 mg/kg/injection, schedule: Q04DX003 (ip), vehicle: saline with Tween-80
  survivor count: 0 of 6
[14]
  survivor count: 0 of 6

## CC(C(=O)c1ccccc1)C(=O)C(F)(F)F (centres undefined)
dose: 500.0 mg/kg/injection, schedule: Q01DX Z (ip), vehicle: methylcellulose (MC)
  survivor count: 0 of 6

## Cc1c(CNc2ccc(Cl)c(C(=O)NC(CC(=O)O)C(=O)O)c2)ccc2nc(N)nc(N)c12 (centres undefined)
dose: 6.25 mg/kg/injection, schedule: Q01DX009 (ip), vehicle: Klucel (hydroxypropylcellulose) (HPC)
  T/C: 138 % of control
dose: 12.0 mg/kg/injection, schedule: Q01DX009 (ip), vehicle: Klucel (hydroxypropylcellulose) (HPC)
  survivor count: 2 of 6
[16]
  T/C: 138 [4 of 6 alive], 153, 154 % of control [5 of 6 alive]
  survivor count: 1 of 6
dose: 50.0 mg/kg/injection, schedule: Q01DX009 (ip), vehicle: Klucel (hydroxypropylcellulose) (HPC)
  T/C: 138 % of control [5 of 6 alive]
dose: 100.0 mg/kg/injection, schedule: Q01DX009 (ip), vehicle: Klucel (hydroxypropylcellulose) (HPC)
  T/C: 125 % of control
dose: 178.0 mg/kg/injection, schedule: Q01DX001 (ip), vehicle: saline
  T/C: 129 % of control
[15]
  survivor count: 0 of 6, 4 of 6, 5 of 6
[8]
  survivor count: 5 of 6
dose: 300.0 mg/kg/injection, schedule: Q01DX009 (ip), vehicle: saline
  survivor count: 1 of 6
[6]
  T/C: 127 % of control [4 of 6 alive]
dose: 600.0 mg/kg/injection, schedule: Q01DX001 (ip), vehicle: saline
  survivor count: 3 of 6

## ClC1=C(Cl)C2(Cl)C(COc3ccc(Cl)cc3)CC1(Cl)C2(Cl)Cl (centres undefined)
dose: 100.0 mg/kg/injection, schedule: Q01DX009 (ip), vehicle: other
  survivor count: 3 of 6
dose: 200.0 mg/kg/injection, schedule: Q01DX009 (ip), vehicle: other
  survivor count: 2 of 6
dose: 400.0 mg/kg/injection, schedule: Q04DX003 (ip), vehicle: other
  survivor count: 1 of 6

## CCOC(=O)c1oc2c(C(C)=O)c(O)ccc2c1C
[2]
  T/C: 125 % of control
  survivor count: 3 of 3

## CCCCCCCCP(=O)(N1CC1CC)N1CC1CC (centres undefined)
[6]
  survivor count: 0 of 4

## CCCCCCCCC[n+]1cccc(C#N)c1
[4]
  survivor count: 1 of 6

## C/C=C/c1ccc(OCC)c(OC)c1
[10]
  survivor count: 6 of 6

## CCCCN(C)N=Nc1cn(C2OC(CO)C(O)C2O)c(=O)n(C)c1=O (centres undefined)
[3]
  T/C: 128 % of control

## Cc1cc(N(CCOS(C)(=O)=O)CCOS(C)(=O)=O)ccc1C=Nc1ccc(C(=O)O)cc1
dose: 10.0 mg/kg/injection, schedule: Q04DX003 (ip), vehicle: Klucel (hydroxypropylcellulose) (HPC)
  T/C: 129 % of control
dose: 80.0 mg/kg/injection, schedule: Q04DX003 (ip), vehicle: Klucel (hydroxypropylcellulose) (HPC)
  survivor count: 6 of 6
[12]
  survivor count: 5 of 6
[13]
  survivor count: 5 of 6
[11]
  survivor count: 2 of 6
